{"source": "PubChem BioAssay AID1347076", "about": "(National Center for Advancing Translational Sciences (NCATS), 2019)", "note": "Among all 400,000 compounds or so, about 13,000 (3.2%) were called active. Inconclusive results, whose numbers are uncertain, are shown with a selection of clear calls. Calls follow the shape of the dose curve; as a rule, active = well fitted cell-killing curve with a large enough effect; inconclusive = small, poorly fitted or top-dose-only effect, or effect the other way; inactive = flat fitted curve, though single readings scatter. Potencies of inconclusive entries are doubtful fits and often do not repeat. % is scaled to controls: 0 for no effect and ±100 for the full control effect; potency is read from the fitted curve at half-maximal effect."}
{"assay": "qHTS assay for MDR1-selective chemotherapeutics: Primary screen using the drug-selected MDR subline cells KB-V1; also: nearly all actives have a fitted effect of over 60% in size", "conditions": "KB-V1 MDR cells viability, CellTiter-Glo, 72 h; activity change, negative = cytotoxicity: at 46.1 µM (top of the series)", "method_in_brief": "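Following 72 h at 37 degrees C with compound, KB-V1 cell viability was read by CellTiter-Glo luminescence, medium being phenol-red-free DMEM plus 10% FBS; concentration-response parameters came from normalized, curve-fitted qHTS data.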"}
{"smiles": "CCn1c(CNc2ccccc2Cl)nnc1SCCN1CCCCC1", "Potency": "inconclusive: 9.2 µM [cytotoxic, partial curve]"}
{"smiles": "Cn1c(=O)cc(SCC(=O)N2CCN(c3ccccn3)CC2)c2ccccc21", "Potency": "inactive"}
{"smiles": "Nc1ccc(C(=O)C(=O)c2ccc(N)cc2)cc1", "Potency": "inactive"}
{"smiles": "CCOC(=O)c1ccc2c(c1)N(CC(=O)N1CCCCC1)C(=O)C(C)(C)O2", "Potency": "inconclusive: 25.9 µM [cytotoxic, partial curve, poor fit]"}
{"smiles": "COc1ccc(OC)c(-c2cc(C(=O)Nc3c(C)n(C)n(-c4ccccc4)c3=O)no2)c1", "Potency": "active: 23.1 µM"}
{"smiles": "COc1ccc(CN2CCN(C3CCSCC3)CC2CCO)c(C)c1C", "note": "(stereo not given)", "Potency": "inactive"}
{"smiles": "COc1ccc(OCC(=O)N2CCC(c3nc4ccccc4s3)CC2)cc1", "Potency": "inconclusive: 13 µM [cytotoxic, partial curve]"}
{"smiles": "COc1ccc(/C(O)=C2/C(=O)C(=O)N(CCCN3CCOCC3)C2c2ccc(N(C)C)cc2)cc1", "note": "(stereo not given)", "Potency": "inactive"}
{"smiles": "COc1cc(C2N(c3ccccc3)CCN2c2ccccc2)cc(OC)c1OC", "Potency": "inconclusive: 18.4 µM [cytotoxic, partial curve, poor fit]"}
{"smiles": "ON=C1c2ccccc2-c2cc(Br)ccc21", "Potency": "inconclusive: 20.6 µM [cytotoxic, single point]"}
{"smiles": "CCc1ccccc1-n1c(SCC(=O)N2CCCC2)nnc1-c1ccccn1", "Potency": "inactive"}
{"smiles": "CNc1nc(Sc2ccc(C)cc2)cc(C(F)(F)F)n1", "Potency": "inconclusive: 25.9 µM [cytotoxic, single point]"}
{"smiles": "O=C(Nc1cc(S(=O)(=O)N2CCOCC2)ccc1O)c1ccc(S(=O)(=O)N2CCCCC2)cc1", "Potency": "inconclusive: 11.6 µM [rising, partial curve]"}
{"smiles": "CCC(C(=O)OCC(=O)N1CCN(S(=O)(=O)c2ccc(C)cc2C)CC1)c1ccccc1", "note": "(stereo not given)", "Potency": "active: 14.6 µM"}
{"smiles": "N#CCc1cc2ccc3cccc4ccc(c1)c2c34", "Potency": "active: 7.31 µM"}
{"smiles": "COc1cc2c(cc1OC)-c1cc(OCCN3CCOCC3)nc(=O)n1CC2", "Potency": "inconclusive: 29.1 µM [rising, single point]"}
{"smiles": "Cc1c2cnn(CC(=O)NCC(C)c3ccccc3)c(=O)c2c(C)n1Cc1cccc(Cl)c1", "note": "(stereo not given)", "Potency": "inactive"}
{"smiles": "O=c1cc(C(F)(F)F)[nH]c2ccc(C(F)(F)F)cc12", "Potency": "inconclusive: 29.1 µM [cytotoxic, single point]"}
{"smiles": "COC(=O)c1cn(NC(=O)C2CCC(C(C)(C)C)CC2)c(=O)c2ccccc12", "note": "(stereo not given)", "Potency": "inactive"}
{"smiles": "Oc1ccccc1C=NNC(=S)NC1CC2C=CC1C2", "note": "(stereo not given)", "Potency": "inconclusive: 3.26 µM [cytotoxic, full curve]"}
{"smiles": "O=C(NCCS(=O)(=O)N1CCc2ccccc2C1)c1ccccc1", "Potency": "inconclusive: 29.1 µM [cytotoxic, single point]"}
{"smiles": "CCOC(=O)C1C(=O)C=C(/C=C/c2ccc(N(C)C)cc2)CC1c1ccccc1", "note": "(stereo not given)", "Potency": "inactive"}
{"smiles": "CCOC(=O)c1c(C)[nH]c(C(=O)COC(=O)c2ccc(F)c(S(=O)(=O)N3CCOCC3)c2)c1C", "Potency": "inconclusive: 32.6 µM [cytotoxic, single point]"}
{"smiles": "CC1CN(CCCOc2ccccc2-c2ccccc2)CC(C)O1", "note": "(stereo not given)", "Potency": "inconclusive: 6.51 µM [cytotoxic, full curve]"}
{"smiles": "COc1ccc(C#Cc2cccc(-c3nc(C(=O)NCCCN4CCOCC4)cc4c3[C@H](CCO)N(S(=O)C(C)(C)C)C4)c2)cc1OC", "note": "(stereo not given in full)", "Potency": "inconclusive: 29.1 µM [cytotoxic, single point]"}
{"smiles": "Cc1ccc(CN=c2c([N+](=O)[O-])nn(-c3ccc4c(c3)OCCO4)n2O)cc1", "Potency": "inconclusive: 29.1 µM [cytotoxic, single point]"}
{"smiles": "CCc1nc2ccc(C(=O)NCCOc3ccc(OC)cc3)cn2c1N(C)CCCc1ccccc1", "Potency": "inactive"}
{"smiles": "CCCC(=O)N(CCc1ccccc1)Cc1nc2ccccc2c(=O)[nH]1", "Potency": "inconclusive: 18.4 µM [cytotoxic, single point]"}
{"smiles": "O=C(N=Nc1c(O)[nH]c2ccc(F)cc12)C1COc2ccccc2O1", "note": "(stereo not given)", "Potency": "inconclusive: 20.6 µM [rising, single point]"}
{"smiles": "CCOC(=O)C1CCN(C(=O)c2ccc(OCC(=O)Nc3cccc(C(F)(F)F)c3)c(OC)c2)CC1", "Potency": "inconclusive: 0.231 µM [cytotoxic, full curve]"}
{"smiles": "CC12CCC(C(=O)N(NC(=O)c3ccccc3O)C1=O)C2(C)C", "note": "(stereo not given)", "Potency": "active: 3.26 µM"}
{"smiles": "COc1ccccc1N1CCN(c2ncnc3onc(-c4ccc(F)cc4)c23)CC1", "Potency": "inconclusive: 29.1 µM [cytotoxic, single point]"}
{"smiles": "Cc1ccc(NC(=O)C2CCN(S(=O)(=O)c3ccc4[nH]c5c(c4c3)CCCCC5)CC2)cc1", "Potency": "inactive"}
{"smiles": "COc1cccc(C(=O)NCCc2csc(-c3ccc(Cl)cc3)n2)c1", "Potency": "inactive"}
{"smiles": "Cc1cc(=O)oc2cc(O)c(N=Nc3ccccc3)cc12", "Potency": "inactive"}
{"smiles": "CCOC(=O)C1CCN(S(=O)(=O)c2ccc3[nH]c4c(c3c2)CCCC4)CC1", "Potency": "inactive"}
{"smiles": "O=C(/C=C/c1ccc(F)cc1)NC(=S)NNC(=O)[C@H]1C[C@@H]1c1ccccc1", "Potency": "inconclusive: 18.4 µM [cytotoxic, single point]"}
{"smiles": "COc1cccc(CN(C)CC(=O)NNC(=O)c2ccc(Cl)cc2)c1", "Potency": "inconclusive: 14.6 µM [cytotoxic, partial curve, poor fit]"}
{"smiles": "Cc1ccc(C2OCC3(CO2)COC(c2ccc(C)cc2)OC3)cc1", "note": "(stereo not given)", "Potency": "inconclusive: 9.2 µM [rising, partial curve, poor fit]"}
{"smiles": "O=C(O)c1cc2ncc(-c3[nH]ncc3[N+](=O)[O-])cn2n1", "activity change, negative = cytotoxicity": "inconclusive: -4.03%"}
{"smiles": "CC1Oc2ccc(C#N)cc2N(Cc2cccc(F)c2)C1=O", "note": "(stereo not given)", "Potency": "inactive"}
{"smiles": "COc1ccccc1NC(=O)c1ccc(NC(=O)C2CC2C)cc1", "note": "(stereo not given)", "Potency": "inconclusive: 10.3 µM [cytotoxic, partial curve]"}
{"smiles": "COc1ccc(C)cc1NC(=O)CSc1nnc(-c2ccccn2)n1Cc1ccco1", "Potency": "active: 11.6 µM"}
{"smiles": "Cc1ccc(C)c(NC(=O)CCC(=O)N/N=C/c2cc([N+](=O)[O-])ccc2O)c1", "Potency": "inconclusive: 16.4 µM [cytotoxic, single point]"}
{"smiles": "COc1ccc2c(c1)OC[C@H]1[C@H]2N2C(=O)c3cc(Br)ccc3NC(=O)[C@@]2(C)[C@H]1c1ccccc1", "Potency": "inactive"}
